For assay [1], the target named is Flag-tagged full-length human BACH1 (human) (UniProt O14867). Kind of assay: co-IP; HEK293T cells co-transfected with PTP1B-HA or IR-β-GFP and Flag-tagged BACH1 (full or lacking the BTB domain); precipitated with anti-Flag, blot with anti-HA or anti-GFP.
For assay [2], the target named is GST-tagged BACH1 protein (GST-BACH1) (not stated (human or mouse cDNA cloned)) (UniProt O14867). As to the kind of experiment: pull-down; GST-BACH1 on glutathione-Sepharose 4B incubated for 2 h at 4 °C with IR-β-GFP or PTP1B-HA from transfected HEK293T cells (lysate by the legend and results; 'purified' by the methods), three washes, blot; only the target purified.

Chains of the proteins cited; added tags and fusions are not shown. Residues count along the entry.
UniProt O14867: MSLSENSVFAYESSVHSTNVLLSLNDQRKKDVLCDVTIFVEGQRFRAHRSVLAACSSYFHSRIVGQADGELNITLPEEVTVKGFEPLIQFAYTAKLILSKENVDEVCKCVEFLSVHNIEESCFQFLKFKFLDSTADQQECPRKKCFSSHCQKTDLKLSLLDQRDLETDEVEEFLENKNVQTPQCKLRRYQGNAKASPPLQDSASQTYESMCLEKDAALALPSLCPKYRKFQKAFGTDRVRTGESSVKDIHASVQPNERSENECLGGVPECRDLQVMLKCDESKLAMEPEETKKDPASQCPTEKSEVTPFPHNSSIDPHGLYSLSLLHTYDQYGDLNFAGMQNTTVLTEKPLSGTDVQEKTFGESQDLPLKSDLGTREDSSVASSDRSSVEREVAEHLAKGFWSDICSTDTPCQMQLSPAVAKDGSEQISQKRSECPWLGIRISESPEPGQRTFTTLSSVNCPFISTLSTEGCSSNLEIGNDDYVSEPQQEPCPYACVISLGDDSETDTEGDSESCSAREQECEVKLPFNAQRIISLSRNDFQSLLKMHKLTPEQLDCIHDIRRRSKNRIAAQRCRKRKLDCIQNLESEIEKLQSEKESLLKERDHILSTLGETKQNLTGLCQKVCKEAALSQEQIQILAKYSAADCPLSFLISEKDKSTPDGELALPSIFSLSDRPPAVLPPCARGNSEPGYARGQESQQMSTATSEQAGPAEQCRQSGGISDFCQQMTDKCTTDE
UniProt P97302: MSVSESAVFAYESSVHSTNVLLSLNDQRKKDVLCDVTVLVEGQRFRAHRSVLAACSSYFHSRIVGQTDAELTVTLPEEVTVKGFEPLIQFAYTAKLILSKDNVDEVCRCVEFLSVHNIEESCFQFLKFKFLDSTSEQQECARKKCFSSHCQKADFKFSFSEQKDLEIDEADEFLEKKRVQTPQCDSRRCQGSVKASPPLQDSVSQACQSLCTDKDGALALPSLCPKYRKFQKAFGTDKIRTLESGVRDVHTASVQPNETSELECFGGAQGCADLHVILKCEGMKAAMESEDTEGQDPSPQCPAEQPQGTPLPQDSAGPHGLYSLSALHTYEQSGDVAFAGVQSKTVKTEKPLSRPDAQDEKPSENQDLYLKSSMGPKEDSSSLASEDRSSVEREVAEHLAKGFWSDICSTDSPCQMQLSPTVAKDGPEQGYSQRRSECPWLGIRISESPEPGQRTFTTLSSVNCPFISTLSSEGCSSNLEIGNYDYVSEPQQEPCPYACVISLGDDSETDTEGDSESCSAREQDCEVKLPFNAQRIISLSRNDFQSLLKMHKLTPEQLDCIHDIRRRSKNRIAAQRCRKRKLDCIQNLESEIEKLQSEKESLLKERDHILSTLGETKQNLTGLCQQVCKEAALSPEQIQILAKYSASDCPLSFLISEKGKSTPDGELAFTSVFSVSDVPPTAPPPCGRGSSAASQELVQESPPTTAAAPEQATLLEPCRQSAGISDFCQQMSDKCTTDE
UniProt P06213, residues 763-1382: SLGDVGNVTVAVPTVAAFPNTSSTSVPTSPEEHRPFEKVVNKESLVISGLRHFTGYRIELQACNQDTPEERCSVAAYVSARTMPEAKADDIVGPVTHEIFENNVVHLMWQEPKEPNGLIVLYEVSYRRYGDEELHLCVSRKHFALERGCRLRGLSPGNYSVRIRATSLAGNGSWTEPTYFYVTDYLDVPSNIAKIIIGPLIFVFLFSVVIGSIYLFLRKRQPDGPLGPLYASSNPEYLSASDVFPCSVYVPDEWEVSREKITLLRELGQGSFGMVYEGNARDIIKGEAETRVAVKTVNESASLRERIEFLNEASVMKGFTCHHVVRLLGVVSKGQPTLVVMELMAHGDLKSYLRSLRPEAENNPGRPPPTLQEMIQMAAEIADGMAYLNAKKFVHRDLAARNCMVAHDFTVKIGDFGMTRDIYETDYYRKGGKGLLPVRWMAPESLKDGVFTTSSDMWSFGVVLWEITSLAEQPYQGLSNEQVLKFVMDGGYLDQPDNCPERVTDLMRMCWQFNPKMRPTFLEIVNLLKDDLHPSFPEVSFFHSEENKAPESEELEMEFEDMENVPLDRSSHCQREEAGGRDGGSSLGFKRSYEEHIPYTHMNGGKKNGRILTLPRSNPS
UniProt P15208, residues 753-1372: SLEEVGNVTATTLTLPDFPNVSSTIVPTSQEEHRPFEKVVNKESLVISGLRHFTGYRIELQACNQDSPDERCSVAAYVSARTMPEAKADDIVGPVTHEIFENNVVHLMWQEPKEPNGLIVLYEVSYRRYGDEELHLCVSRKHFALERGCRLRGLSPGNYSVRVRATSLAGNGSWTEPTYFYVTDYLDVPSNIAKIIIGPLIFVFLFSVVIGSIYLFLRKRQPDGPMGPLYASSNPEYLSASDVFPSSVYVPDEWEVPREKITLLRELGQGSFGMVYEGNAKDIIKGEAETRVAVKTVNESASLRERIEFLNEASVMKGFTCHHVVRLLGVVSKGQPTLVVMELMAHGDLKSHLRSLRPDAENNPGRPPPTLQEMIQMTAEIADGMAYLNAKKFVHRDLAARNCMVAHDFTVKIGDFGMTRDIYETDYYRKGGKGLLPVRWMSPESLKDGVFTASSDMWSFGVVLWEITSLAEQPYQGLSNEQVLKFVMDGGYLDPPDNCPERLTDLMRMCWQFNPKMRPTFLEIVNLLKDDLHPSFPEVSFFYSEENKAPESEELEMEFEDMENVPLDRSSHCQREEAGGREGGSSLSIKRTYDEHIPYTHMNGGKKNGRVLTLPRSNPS
UniProt O08586: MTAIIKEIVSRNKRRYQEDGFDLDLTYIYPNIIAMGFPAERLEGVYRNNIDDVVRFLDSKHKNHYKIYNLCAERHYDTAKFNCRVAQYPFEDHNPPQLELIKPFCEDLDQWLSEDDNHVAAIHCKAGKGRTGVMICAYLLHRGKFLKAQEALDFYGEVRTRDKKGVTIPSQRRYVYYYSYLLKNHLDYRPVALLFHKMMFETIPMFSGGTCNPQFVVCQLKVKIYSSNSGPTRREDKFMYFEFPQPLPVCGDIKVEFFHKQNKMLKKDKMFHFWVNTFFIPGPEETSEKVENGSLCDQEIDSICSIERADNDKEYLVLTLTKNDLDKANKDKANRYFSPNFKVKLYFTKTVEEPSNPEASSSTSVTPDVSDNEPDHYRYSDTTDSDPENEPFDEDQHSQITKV

Assay [3] addresses BTB and CNC homology 1 (BACH1), endogenous mouse (mouse (endogenous in primary hepatocytes)) (UniProt P97302). As to the kind of experiment: co-IP; lysate of mouse primary hepatocytes precipitated with anti-BACH1 antibody or control mouse IgG; blots for IR-β, PTP1B, PTEN, PP2A and BACH1; endogenous proteins.
Assay [4] addresses T1, protein tyrosine phosphatase 1B (PTP1B), endogenous mouse (mouse (endogenous in primary hepatocytes and liver)) (UniProt P35821).
T1 sequence: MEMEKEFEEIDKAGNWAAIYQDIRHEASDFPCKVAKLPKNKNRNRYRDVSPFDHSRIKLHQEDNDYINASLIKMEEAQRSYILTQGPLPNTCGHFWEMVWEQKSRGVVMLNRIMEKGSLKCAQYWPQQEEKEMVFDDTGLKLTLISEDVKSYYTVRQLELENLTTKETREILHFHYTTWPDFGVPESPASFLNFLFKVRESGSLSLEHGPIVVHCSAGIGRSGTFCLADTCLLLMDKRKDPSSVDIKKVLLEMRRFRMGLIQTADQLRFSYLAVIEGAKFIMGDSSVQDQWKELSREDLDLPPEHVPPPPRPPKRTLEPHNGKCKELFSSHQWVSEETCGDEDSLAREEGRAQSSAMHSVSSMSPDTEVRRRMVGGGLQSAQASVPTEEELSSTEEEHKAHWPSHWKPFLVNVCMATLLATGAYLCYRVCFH
As to the kind of experiment: co-IP; liver lysates of HFD-fed Bach1^LKO and Bach1^fl/fl mice, with or without insulin injected i.p. after fasting; precipitated with anti-PTP1B, blot for IR-β; endogenous proteins.

Results are given in words; binding and its absence hold for the method and conditions named. Binding seen in cells or lysates may run through a third protein. Some binding calls cover weakened binding; strength is not graded here.

For “human IR-β-GFP (from UniProt P06213 763-1382) (receptor)”, the binding result in assay [1] and in assay [2] was “binds” throughout.
Take “insulin receptor β (IR-β), endogenous mouse (from UniProt P15208 753-1372)”: the binding result in assay [3] and in assay [4] was “binds” each time.
Consider “phosphatase and tensin homolog (PTEN), endogenous mouse (from UniProt O08586 1-403) (enzyme)”, for which, in assay [3], the binding result is given as “no binding”.

Source of the values: PMC10739811.
